{"source": "patent US20050037946A1", "about": "“Methods and compositions for treating cardiovascular disease using 1722, 10280, 59917, 85553, 10653, 9235, 21668, 17794, 2210, 6169, 10102, 21061, 17662, 1468, 12282, 6350, 9035, 1820, 23652, 7301, 8925, 8701, 3533, 9462, 9123, 12788, 17729, 65552, 1261, 21476, 33770, 9380, 2569654, 33556, 53656, …” (Millennium Pharmaceuticals, Inc., priority 2003, published 2005)", "origin": "cited, not measured here", "key": {"[1]": {"conditions": "rats; cited from earlier work"}, "[2]": {"tested_on": "voltage-gated potassium channel expression (Kv)", "conditions": "patients with pulmonary arterial hypertension, oral; cited from earlier work"}, "[3]": {"conditions": "humans; cited from earlier work"}, "[4]": {"conditions": "humans, after two intravenous bolus doses; cited from earlier work"}}, "note": "Read-outs that look alike come from different tables or passages of the source. At least one compound was matched to its structure with a doubt left.", "data": [{"smiles": "O=C(O)C(Cl)Cl", "note": "[DCA, dichloroacetate]", "values": [{"measurement": "cardiac function", "setting": "[1]", "value": "improve"}, {"measurement": "redox state", "setting": "[2]", "value": "promoted a more oxidized redox state"}, {"measurement": "cardiac function", "setting": "[3]", "value": "improve"}, {"measurement": "peripheral vascular resistance", "setting": "[4]", "value": "reduced"}]}]}
